These are yes or no findings as the source states them, for the method shown.
Biological target: N-terminal rhodamine-B tagged Aβ (RAβ 1-40) (UniProt P05067)
Test: fluorescence correlation spectroscopy

Amino acid sequences for entries named in this document (tags omitted). Residues count along the entry.
UniProt P05067, residues 672-711: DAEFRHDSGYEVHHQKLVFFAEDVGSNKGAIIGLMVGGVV
UniProt P00004: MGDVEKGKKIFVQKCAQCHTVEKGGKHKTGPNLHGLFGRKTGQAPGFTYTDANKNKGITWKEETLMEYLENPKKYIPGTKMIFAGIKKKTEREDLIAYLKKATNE

binding: no binding
Substance: Cytochrome C (from UniProt P00004 1-105)

From publication doi:10.1101/2023.09.03.556061
